Measurements: publication PMC9522936, “Regain flood adaptation in rice through a 14-3-3 protein OsGF14h” (Nature Communications, 2022)
No constants are given. Whether binding was seen depends on the method and setting. Binding can be weak; no strength is given. For some assays here: Tags and fused reporters may be left off the sequences shown. For some assays here: In cells and extracts the contact can be indirect. Each block holds one molecule with its values, some of them ahead of it.

Legend:
GST-OsHOX3 (rice) = target: T1, GST-OsHOX3 (rice) (UniProt Q0JKX1); assay: pull-down; GST-OsHOX3 or GST-OsVP1 as bait on GST beads, equal quantities of recombinant proteins in GST pull-down buffer at 4 °C overnight, His-OsGF14h detected by anti-His; both purified
T1 sequence: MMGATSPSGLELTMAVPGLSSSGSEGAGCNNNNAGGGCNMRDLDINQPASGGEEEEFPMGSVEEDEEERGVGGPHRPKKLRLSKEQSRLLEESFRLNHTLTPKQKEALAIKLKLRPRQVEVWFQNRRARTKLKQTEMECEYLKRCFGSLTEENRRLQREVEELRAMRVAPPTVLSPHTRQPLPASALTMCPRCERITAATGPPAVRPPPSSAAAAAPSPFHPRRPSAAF

GST-OsVP1 (rice) = target: T2, GST-OsVP1 (rice) (UniProt P37398); assay: as above
T2 sequence: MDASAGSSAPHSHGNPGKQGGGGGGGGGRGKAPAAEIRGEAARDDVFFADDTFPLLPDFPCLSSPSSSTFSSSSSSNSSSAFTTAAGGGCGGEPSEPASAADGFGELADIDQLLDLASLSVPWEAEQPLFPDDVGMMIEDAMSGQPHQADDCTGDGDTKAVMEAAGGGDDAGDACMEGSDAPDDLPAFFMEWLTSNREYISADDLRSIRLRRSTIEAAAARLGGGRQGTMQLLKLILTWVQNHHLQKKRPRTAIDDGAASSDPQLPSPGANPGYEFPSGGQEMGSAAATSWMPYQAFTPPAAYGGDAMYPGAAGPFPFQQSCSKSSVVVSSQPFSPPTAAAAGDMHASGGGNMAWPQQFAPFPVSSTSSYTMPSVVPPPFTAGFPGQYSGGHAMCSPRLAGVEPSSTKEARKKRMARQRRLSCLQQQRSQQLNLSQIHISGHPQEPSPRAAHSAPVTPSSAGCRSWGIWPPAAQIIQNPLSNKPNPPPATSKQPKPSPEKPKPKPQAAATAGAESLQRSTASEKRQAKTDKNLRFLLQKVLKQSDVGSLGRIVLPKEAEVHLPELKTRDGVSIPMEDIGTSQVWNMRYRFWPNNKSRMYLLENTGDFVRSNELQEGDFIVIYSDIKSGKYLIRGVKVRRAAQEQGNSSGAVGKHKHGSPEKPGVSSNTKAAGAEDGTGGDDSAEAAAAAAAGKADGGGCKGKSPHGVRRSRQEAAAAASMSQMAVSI

[1] = target: OsGF14h^WR04-6-GFP (pBWA(V)HS-OsGF14h-GFP) (weedy rice (Oryza sativa f. spontanea) WR04-6); assay: co-IP; OsGF14h-GFP and 3×FLAG-HOX3 or 3×FLAG-VP1 co-expressed in N. benthamiana leaves; GFP-Trap agarose 2 h; washes in 10 mM Tris-HCl pH 8.0, 150 mM NaCl, 0.5 mM EDTA, 2 mM DTT, 0.1% NP-40; anti-FLAG blot
[2] = target: OsGF14h^WR04-6 (pGBKT7-OsGF14h, two-hybrid bait) (weedy rice (Oryza sativa f. spontanea) WR04-6); assay: two-hybrid; pairwise, pGBKT7-OsGF14h with pGADT7-OsHOX3 or pGADT7-VP1 in strain Y2H Gold; growth on SD/-Leu-Trp-His-Ade
[3] = target: OsGF14h^WR04-6 fused with nLuc (pCAMBIA1300-nLuc) (weedy rice (Oryza sativa f. spontanea) WR04-6); assay: split reporter; luciferase complementation imaging, nLuc and cLuc fusions co-expressed in N. benthamiana leaves, 23 °C for 48 h, 1 mM luciferin

Molecule: His-OsGF14h^WR04-6
binding (GST-OsHOX3 (rice)): binds | binding (GST-OsVP1 (rice)): binds

B5: OsVP1 fused with cLuc (pCAMBIA1300-cLuc) (protein, UniProt P37398 1-727)
chain: MDASAGSSAPHSHGNPGKQGGGGGGGGGRGKAPAAEIRGEAARDDVFFADDTFPLLPDFPCLSSPSSSTFSSSSSSNSSSAFTTAAGGGCGGEPSEPASAADGFGELADIDQLLDLASLSVPWEAEQPLFPDDVGMMIEDAMSGQPHQADDCTGDGDTKAVMEAAGGGDDAGDACMEGSDAPDDLPAFFMEWLTSNREYISADDLRSIRLRRSTIEAAAARLGGGRQGTMQLLKLILTWVQNHHLQKKRPRTAIDDGAASSDPQLPSPGANPGYEFPSGGQEMGSAAATSWMPYQAFTPPAAYGGDAMYPGAAGPFPFQQSCSKSSVVVSSQPFSPPTAAAAGDMHASGGGNMAWPQQFAPFPVSSTSSYTMPSVVPPPFTAGFPGQYSGGHAMCSPRLAGVEPSSTKEARKKRMARQRRLSCLQQQRSQQLNLSQIHISGHPQEPSPRAAHSAPVTPSSAGCRSWGIWPPAAQIIQNPLSNKPNPPPATSKQPKPSPEKPKPKPQAAATAGAESLQRSTASEKRQAKTDKNLRFLLQKVLKQSDVGSLGRIVLPKEAEVHLPELKTRDGVSIPMEDIGTSQVWNMRYRFWPNNKSRMYLLENTGDFVRSNELQEGDFIVIYSDIKSGKYLIRGVKVRRAAQEQGNSSGAVGKHKHGSPEKPGVSSNTKAAGAEDGTGGDDSAEAAAAAAAGKADGGGCKGKSPHGVRRSRQEAAAAASMSQMAVSI
binding [3]: binds

B6: OsVP1 (pGADT7-VP1, two-hybrid prey) (protein, UniProt P37398 1-727)
chain: MDASAGSSAPHSHGNPGKQGGGGGGGGGRGKAPAAEIRGEAARDDVFFADDTFPLLPDFPCLSSPSSSTFSSSSSSNSSSAFTTAAGGGCGGEPSEPASAADGFGELADIDQLLDLASLSVPWEAEQPLFPDDVGMMIEDAMSGQPHQADDCTGDGDTKAVMEAAGGGDDAGDACMEGSDAPDDLPAFFMEWLTSNREYISADDLRSIRLRRSTIEAAAARLGGGRQGTMQLLKLILTWVQNHHLQKKRPRTAIDDGAASSDPQLPSPGANPGYEFPSGGQEMGSAAATSWMPYQAFTPPAAYGGDAMYPGAAGPFPFQQSCSKSSVVVSSQPFSPPTAAAAGDMHASGGGNMAWPQQFAPFPVSSTSSYTMPSVVPPPFTAGFPGQYSGGHAMCSPRLAGVEPSSTKEARKKRMARQRRLSCLQQQRSQQLNLSQIHISGHPQEPSPRAAHSAPVTPSSAGCRSWGIWPPAAQIIQNPLSNKPNPPPATSKQPKPSPEKPKPKPQAAATAGAESLQRSTASEKRQAKTDKNLRFLLQKVLKQSDVGSLGRIVLPKEAEVHLPELKTRDGVSIPMEDIGTSQVWNMRYRFWPNNKSRMYLLENTGDFVRSNELQEGDFIVIYSDIKSGKYLIRGVKVRRAAQEQGNSSGAVGKHKHGSPEKPGVSSNTKAAGAEDGTGGDDSAEAAAAAAAGKADGGGCKGKSPHGVRRSRQEAAAAASMSQMAVSI
binding [2]: binds

More lines, now with the values ahead:

binding [1]: binds
B1: 3×FLAG-HOX3 (pBWA(V)HS-3×FLAG-HOX3) (protein, UniProt Q0JKX1 1-229)
chain: MMGATSPSGLELTMAVPGLSSSGSEGAGCNNNNAGGGCNMRDLDINQPASGGEEEEFPMGSVEEDEEERGVGGPHRPKKLRLSKEQSRLLEESFRLNHTLTPKQKEALAIKLKLRPRQVEVWFQNRRARTKLKQTEMECEYLKRCFGSLTEENRRLQREVEELRAMRVAPPTVLSPHTRQPLPASALTMCPRCERITAATGPPAVRPPPSSAAAAAPSPFHPRRPSAAF

binding [2]: binds
B2: OsHOX3 (pGADT7-OsHOX3, two-hybrid prey) (protein, UniProt Q0JKX1 1-229)
chain: MMGATSPSGLELTMAVPGLSSSGSEGAGCNNNNAGGGCNMRDLDINQPASGGEEEEFPMGSVEEDEEERGVGGPHRPKKLRLSKEQSRLLEESFRLNHTLTPKQKEALAIKLKLRPRQVEVWFQNRRARTKLKQTEMECEYLKRCFGSLTEENRRLQREVEELRAMRVAPPTVLSPHTRQPLPASALTMCPRCERITAATGPPAVRPPPSSAAAAAPSPFHPRRPSAAF

binding [3]: binds
B3: OsHOX3 fused with cLuc (pCAMBIA1300-cLuc) (protein, UniProt Q0JKX1 1-229)
chain: MMGATSPSGLELTMAVPGLSSSGSEGAGCNNNNAGGGCNMRDLDINQPASGGEEEEFPMGSVEEDEEERGVGGPHRPKKLRLSKEQSRLLEESFRLNHTLTPKQKEALAIKLKLRPRQVEVWFQNRRARTKLKQTEMECEYLKRCFGSLTEENRRLQREVEELRAMRVAPPTVLSPHTRQPLPASALTMCPRCERITAATGPPAVRPPPSSAAAAAPSPFHPRRPSAAF

binding [1]: binds
B4: 3×FLAG-VP1 (pBWA(V)HS-3×FLAG-VP1) (protein, UniProt P37398 1-727)
chain: MDASAGSSAPHSHGNPGKQGGGGGGGGGRGKAPAAEIRGEAARDDVFFADDTFPLLPDFPCLSSPSSSTFSSSSSSNSSSAFTTAAGGGCGGEPSEPASAADGFGELADIDQLLDLASLSVPWEAEQPLFPDDVGMMIEDAMSGQPHQADDCTGDGDTKAVMEAAGGGDDAGDACMEGSDAPDDLPAFFMEWLTSNREYISADDLRSIRLRRSTIEAAAARLGGGRQGTMQLLKLILTWVQNHHLQKKRPRTAIDDGAASSDPQLPSPGANPGYEFPSGGQEMGSAAATSWMPYQAFTPPAAYGGDAMYPGAAGPFPFQQSCSKSSVVVSSQPFSPPTAAAAGDMHASGGGNMAWPQQFAPFPVSSTSSYTMPSVVPPPFTAGFPGQYSGGHAMCSPRLAGVEPSSTKEARKKRMARQRRLSCLQQQRSQQLNLSQIHISGHPQEPSPRAAHSAPVTPSSAGCRSWGIWPPAAQIIQNPLSNKPNPPPATSKQPKPSPEKPKPKPQAAATAGAESLQRSTASEKRQAKTDKNLRFLLQKVLKQSDVGSLGRIVLPKEAEVHLPELKTRDGVSIPMEDIGTSQVWNMRYRFWPNNKSRMYLLENTGDFVRSNELQEGDFIVIYSDIKSGKYLIRGVKVRRAAQEQGNSSGAVGKHKHGSPEKPGVSSNTKAAGAEDGTGGDDSAEAAAAAAAGKADGGGCKGKSPHGVRRSRQEAAAAASMSQMAVSI
